Here are results for 3 substances from publication PMC3511349.

By UniProt entry, the sequences of proteins in these tests, tags left out.
UniProt Q9HCE7: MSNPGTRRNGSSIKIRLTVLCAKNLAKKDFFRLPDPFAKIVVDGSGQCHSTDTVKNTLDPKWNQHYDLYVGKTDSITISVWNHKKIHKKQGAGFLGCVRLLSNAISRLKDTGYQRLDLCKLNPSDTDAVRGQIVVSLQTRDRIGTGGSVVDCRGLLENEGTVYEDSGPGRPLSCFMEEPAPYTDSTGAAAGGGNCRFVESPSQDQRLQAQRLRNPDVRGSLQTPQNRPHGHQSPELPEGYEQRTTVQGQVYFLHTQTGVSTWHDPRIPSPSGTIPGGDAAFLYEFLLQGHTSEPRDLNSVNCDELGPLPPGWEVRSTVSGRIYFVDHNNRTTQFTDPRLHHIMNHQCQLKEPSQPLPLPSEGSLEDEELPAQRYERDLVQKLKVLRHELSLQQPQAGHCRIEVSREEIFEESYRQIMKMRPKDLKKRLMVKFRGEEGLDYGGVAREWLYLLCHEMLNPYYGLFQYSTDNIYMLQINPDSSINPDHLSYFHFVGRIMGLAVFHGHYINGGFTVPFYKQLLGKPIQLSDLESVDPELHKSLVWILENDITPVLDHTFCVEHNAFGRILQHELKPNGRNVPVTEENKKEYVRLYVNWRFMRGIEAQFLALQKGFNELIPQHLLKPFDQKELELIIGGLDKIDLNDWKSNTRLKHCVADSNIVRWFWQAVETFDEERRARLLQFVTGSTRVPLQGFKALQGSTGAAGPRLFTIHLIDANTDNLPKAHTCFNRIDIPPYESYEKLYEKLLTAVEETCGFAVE
UniProt Q9UM11: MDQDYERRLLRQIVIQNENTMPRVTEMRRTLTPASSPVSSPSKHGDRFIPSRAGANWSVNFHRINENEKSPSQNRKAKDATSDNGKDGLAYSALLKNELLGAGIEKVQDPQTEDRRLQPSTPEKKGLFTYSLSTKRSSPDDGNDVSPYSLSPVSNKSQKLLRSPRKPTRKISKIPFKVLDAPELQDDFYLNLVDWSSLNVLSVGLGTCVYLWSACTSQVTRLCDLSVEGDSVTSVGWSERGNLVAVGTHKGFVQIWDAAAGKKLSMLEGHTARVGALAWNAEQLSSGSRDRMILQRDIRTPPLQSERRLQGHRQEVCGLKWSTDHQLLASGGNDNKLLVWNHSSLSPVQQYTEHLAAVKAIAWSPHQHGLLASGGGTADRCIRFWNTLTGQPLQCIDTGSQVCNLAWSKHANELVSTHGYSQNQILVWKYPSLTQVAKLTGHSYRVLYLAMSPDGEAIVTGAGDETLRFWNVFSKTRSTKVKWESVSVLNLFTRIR

No constants are given. Whether binding was seen depends on the method and setting. Binding seen in cells or lysates may run through a third protein. Some results given as binding are weak or reduced against the parent protein; the word gives no strength. For some assays here: Tags and fused reporters may be left off the sequences shown.

Holding throughout (test): co-IP; transfected 293T cells lysed in 150 mM NaCl, 210 mM Tris pH 7.4, 1 mM EDTA, 1% NP40, 10% glycerol; antibody (Myc, HA or GFP) 4 h at 4°C, Protein A Sepharose 1 h; washed 3 times with 1 M NaCl Triton-X100 buffer and once with PBS; immunoblot
For orientation: A western blot detects proteins with antibodies after separation by electrophoresis.

In experiment [1] the target is T1, Myc-p250GAP-C (not stated (human or mouse cDNA cloned)) (UniProt A7KAX9).
T1 sequence: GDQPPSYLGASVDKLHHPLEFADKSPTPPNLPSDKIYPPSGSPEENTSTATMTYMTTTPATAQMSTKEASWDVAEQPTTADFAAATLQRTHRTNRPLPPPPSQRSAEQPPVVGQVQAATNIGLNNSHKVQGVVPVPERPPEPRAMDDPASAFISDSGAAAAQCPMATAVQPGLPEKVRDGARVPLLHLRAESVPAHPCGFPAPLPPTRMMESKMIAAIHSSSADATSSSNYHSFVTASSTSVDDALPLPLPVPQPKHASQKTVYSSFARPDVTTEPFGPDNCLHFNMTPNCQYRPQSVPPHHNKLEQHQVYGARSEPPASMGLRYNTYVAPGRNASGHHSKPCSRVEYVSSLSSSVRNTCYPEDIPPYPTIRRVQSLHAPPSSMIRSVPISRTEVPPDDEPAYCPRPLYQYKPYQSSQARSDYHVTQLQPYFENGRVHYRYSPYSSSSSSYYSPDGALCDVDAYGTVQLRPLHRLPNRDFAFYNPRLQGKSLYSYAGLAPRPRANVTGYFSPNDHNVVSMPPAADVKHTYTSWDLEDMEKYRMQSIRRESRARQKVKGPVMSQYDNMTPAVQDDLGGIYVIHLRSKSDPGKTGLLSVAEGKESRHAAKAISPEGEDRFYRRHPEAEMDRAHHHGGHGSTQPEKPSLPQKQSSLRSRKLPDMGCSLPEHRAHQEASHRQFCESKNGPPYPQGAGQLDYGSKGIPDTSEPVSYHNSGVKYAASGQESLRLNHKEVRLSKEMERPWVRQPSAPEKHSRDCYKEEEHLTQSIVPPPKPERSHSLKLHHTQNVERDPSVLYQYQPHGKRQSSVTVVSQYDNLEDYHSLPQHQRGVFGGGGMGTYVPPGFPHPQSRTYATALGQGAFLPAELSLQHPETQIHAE

Experiment [2] deals with Myc-p250GAP (not stated (human or mouse cDNA cloned)) (UniProt A7KAX9).
Experiment [3] deals with HA-Smurf1 (UniProt Q9HCE7).
Experiment [4] addresses HA-Cdh1 (UniProt Q9UM11).

On to GFP-Cdh1 (from UniProt Q9UM11 1-496), for which the binding result in experiment [1] and in experiment [2] was “binds” each time.

“Myc-p250GAP (from UniProt A7KAX9-2 1-1738)”: the binding entry in experiment [3] and in experiment [4] was “binds” each time.

In the case of HA-Smurf1 (from UniProt Q9HCE7 1-757), the binding entry in experiment [2] is “binds”.
